# Test results reported in the supplement of paper PMC10032668.
# The chains behind the UniProt entries cited, without tags or fusion partners.
# EIF3K, Q9UBQ5, UniProt Q9UBQ5, whole entry: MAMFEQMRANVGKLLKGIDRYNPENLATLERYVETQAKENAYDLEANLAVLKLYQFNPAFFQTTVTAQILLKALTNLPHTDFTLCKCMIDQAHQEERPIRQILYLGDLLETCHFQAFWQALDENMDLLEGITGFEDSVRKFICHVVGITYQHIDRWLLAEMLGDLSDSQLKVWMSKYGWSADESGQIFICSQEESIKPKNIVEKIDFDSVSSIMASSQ
# HAX1, O00165, UniProt O00165, whole entry: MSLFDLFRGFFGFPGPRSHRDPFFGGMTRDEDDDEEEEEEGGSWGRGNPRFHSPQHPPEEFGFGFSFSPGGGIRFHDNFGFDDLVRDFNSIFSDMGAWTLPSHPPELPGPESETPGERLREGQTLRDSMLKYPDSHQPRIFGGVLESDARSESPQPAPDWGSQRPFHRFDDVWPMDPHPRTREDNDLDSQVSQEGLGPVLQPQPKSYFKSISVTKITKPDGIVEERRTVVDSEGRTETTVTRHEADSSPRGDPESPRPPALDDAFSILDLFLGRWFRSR
# NELFB, Q8WX92, UniProt Q8WX92, whole entry: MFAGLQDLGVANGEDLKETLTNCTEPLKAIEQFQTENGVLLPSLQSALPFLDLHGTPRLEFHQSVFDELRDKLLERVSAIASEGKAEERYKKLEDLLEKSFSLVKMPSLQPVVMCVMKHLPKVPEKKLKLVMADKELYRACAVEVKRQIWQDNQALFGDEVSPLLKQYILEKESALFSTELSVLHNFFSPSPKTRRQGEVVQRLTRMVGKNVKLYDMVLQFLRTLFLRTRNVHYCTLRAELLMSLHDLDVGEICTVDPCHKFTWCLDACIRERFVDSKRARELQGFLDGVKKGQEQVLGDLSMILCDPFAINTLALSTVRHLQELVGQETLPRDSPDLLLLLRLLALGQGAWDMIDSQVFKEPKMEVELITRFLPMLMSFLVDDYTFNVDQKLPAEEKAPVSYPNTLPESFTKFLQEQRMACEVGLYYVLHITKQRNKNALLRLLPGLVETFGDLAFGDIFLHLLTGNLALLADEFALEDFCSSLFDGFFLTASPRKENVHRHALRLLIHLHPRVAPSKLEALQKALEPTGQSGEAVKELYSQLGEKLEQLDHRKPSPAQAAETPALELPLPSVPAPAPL
# SMARCB1, Q12824, UniProt Q12824, whole entry: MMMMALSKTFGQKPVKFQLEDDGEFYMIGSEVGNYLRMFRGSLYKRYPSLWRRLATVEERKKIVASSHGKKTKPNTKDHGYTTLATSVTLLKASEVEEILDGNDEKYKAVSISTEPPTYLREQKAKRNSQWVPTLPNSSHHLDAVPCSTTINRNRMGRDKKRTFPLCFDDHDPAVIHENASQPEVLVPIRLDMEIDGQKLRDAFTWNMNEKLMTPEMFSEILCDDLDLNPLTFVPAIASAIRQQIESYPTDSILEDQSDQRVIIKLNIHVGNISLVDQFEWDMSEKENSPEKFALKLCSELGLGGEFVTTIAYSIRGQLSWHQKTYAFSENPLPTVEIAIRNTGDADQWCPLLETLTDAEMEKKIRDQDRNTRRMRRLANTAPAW
# CLPP, Q16740, UniProt Q16740, whole entry: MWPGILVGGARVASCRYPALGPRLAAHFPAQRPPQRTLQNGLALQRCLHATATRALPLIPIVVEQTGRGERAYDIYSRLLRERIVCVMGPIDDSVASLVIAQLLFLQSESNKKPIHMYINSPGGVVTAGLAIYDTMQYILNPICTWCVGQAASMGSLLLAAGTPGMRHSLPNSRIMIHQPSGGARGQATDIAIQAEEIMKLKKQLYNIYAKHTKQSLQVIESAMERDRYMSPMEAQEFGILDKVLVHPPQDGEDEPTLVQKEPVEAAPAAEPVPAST
# CLPX, O76031, UniProt O76031, whole entry: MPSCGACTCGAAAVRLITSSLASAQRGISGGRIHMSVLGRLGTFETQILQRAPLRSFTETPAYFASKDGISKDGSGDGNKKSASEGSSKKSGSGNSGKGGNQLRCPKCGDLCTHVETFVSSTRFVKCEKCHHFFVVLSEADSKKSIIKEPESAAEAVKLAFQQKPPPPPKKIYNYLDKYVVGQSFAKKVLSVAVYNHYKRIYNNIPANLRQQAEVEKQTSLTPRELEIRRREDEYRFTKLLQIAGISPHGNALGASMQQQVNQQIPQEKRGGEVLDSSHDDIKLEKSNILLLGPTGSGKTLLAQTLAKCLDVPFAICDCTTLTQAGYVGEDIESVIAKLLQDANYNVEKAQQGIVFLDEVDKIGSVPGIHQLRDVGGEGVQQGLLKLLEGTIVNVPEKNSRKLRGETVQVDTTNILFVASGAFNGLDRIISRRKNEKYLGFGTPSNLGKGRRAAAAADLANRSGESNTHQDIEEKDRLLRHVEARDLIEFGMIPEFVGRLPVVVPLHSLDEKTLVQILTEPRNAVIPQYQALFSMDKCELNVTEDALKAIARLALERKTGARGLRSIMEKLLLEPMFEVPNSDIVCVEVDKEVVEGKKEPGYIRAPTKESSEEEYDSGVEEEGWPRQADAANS
# NUP153, P49790, UniProt P49790, whole entry: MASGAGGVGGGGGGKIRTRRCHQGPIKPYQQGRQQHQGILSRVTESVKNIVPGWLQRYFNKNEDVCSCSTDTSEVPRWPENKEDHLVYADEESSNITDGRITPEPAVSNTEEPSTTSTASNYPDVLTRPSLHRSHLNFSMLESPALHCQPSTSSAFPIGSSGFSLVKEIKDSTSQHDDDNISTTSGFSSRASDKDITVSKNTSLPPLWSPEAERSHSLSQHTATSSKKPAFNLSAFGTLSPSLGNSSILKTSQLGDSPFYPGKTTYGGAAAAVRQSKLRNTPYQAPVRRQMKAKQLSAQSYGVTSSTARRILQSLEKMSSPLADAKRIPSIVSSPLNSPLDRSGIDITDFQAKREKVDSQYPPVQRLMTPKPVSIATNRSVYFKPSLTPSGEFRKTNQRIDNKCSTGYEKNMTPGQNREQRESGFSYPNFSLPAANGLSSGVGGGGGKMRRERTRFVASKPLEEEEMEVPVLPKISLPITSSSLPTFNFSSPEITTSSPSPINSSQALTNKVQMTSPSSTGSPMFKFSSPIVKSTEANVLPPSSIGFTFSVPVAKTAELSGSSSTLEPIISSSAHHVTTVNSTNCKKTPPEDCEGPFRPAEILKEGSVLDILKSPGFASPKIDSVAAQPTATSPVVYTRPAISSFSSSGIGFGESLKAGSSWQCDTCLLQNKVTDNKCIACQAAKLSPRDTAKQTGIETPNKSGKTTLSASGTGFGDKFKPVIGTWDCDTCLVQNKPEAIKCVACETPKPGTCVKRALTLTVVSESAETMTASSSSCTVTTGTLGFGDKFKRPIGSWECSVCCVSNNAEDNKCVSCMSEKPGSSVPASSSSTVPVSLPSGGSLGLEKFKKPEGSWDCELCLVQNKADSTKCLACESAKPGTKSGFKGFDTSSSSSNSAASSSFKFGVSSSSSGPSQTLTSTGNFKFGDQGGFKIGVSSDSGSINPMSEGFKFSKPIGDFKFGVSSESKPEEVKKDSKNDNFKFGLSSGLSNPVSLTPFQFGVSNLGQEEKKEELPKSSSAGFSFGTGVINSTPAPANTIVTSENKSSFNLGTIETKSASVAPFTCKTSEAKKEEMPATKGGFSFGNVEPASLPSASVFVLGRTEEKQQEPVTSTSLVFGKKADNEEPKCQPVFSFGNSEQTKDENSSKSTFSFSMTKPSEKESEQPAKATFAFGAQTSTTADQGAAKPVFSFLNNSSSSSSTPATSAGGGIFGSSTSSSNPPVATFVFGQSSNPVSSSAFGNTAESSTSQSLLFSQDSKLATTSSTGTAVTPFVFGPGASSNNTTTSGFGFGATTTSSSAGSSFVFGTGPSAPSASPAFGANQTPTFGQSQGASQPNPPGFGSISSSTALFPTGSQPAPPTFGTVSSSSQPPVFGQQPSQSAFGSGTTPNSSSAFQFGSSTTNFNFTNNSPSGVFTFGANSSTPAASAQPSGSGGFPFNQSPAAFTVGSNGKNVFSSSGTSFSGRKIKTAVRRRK
# PCBP2, Q15366, UniProt Q15366, whole entry: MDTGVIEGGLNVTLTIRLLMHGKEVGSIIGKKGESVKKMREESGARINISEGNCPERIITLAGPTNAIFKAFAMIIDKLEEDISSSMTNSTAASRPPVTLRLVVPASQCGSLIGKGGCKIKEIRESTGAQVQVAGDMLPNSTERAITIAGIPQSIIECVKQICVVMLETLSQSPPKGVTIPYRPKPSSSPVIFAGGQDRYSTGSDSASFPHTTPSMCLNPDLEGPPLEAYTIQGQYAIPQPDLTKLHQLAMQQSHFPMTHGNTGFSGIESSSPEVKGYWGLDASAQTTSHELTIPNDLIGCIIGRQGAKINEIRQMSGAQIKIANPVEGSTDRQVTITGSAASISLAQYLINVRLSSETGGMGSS
# Some of the results follow. The list holds hits alone, and they repeat only in part.
# B1: RPLP0 (peptide)
# chain: MGVGVTRPELPVSPQ
# B2: FBLN5 (peptide)
# chain: MKCSFLTFLLQLV
# What was measured:
# Assay in all cases: PRISMA enrichment of interactor (LFQ) in peptide spot vs all other peptide spots (log2 fold change); higher = stronger / more specific binding of the interactor to the peptide
# AKAP8, O43823 = target: AKAP8, O43823
# Method: (§1)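 PRISMA: 221 full-length sORF-encoded peptides (3-15 aa), plus SOS1/GLUT1 control peptides, were spot-synthesized on cellulose membranes in triplicate. Membranes were incubated with HEK293T lysate, and bound proteins were identified by LC-MS/MS with LFQ. Enrichment is the log2 fold change versus all other peptide spots; only significant interactors are listed (cutoff c=6, x0=2.8).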
# ALDH2, P05091 = target: ALDH2, P05091
# Method: as §1
# ALKBH2, Q6NS38 = target: ALKBH2, Q6NS38
# Method: as §1
# APRT, P07741 = target: APRT, P07741
# Method: as §1
# CAND2, O75155 = target: CAND2, O75155
# Method: as §1
# CHCHD2, Q9Y6H1 = target: CHCHD2, Q9Y6H1
# Method: as §1
# COPS3, Q9UNS2 = target: COPS3, Q9UNS2
# Method: as §1
# CRACR2B, Q8N4Y2 = target: CRACR2B, Q8N4Y2
# Method: as §1
# DUSP3, P51452 = target: DUSP3, P51452
# Method: as §1
# EIF3K, Q9UBQ5 = target: EIF3K, Q9UBQ5
# Method: as §1
# EXOC4, Q96A65 = target: EXOC4, Q96A65
# Method: as §1
# FAM50A, Q14320 = target: FAM50A, Q14320
# Method: as §1
# HAX1, O00165 = target: HAX1, O00165
# Method: as §1
# KIF23, Q02241 = target: KIF23, Q02241
# Method: as §1
# MRPL44, Q9H9J2 = target: MRPL44, Q9H9J2
# Method: as §1
# NCBP1, Q09161 = target: NCBP1, Q09161
# Method: as §1
# NELFB, Q8WX92 = target: NELFB, Q8WX92
# Method: as §1
# PKN1, Q16512 = target: PKN1, Q16512
# Method: as §1
# PSME3, P61289 = target: PSME3, P61289
# Method: as §1
# SMARCB1, Q12824 = target: SMARCB1, Q12824
# Method: as §1
# STRN, O43815 = target: STRN, O43815
# Method: as §1
# SUPT6H, Q7KZ85 = target: SUPT6H, Q7KZ85
# Method: as §1
# TEX264, Q9Y6I9 = target: TEX264, Q9Y6I9
# Method: as §1
# YIF1A, O95070 = target: YIF1A, O95070
# Method: as §1
# ZC3H11A, O75152 = target: ZC3H11A, O75152
# Method: as §1
# AK4, P27144 = target: AK4, P27144
# Method: as §1
# CCAR1, Q8IX12 = target: CCAR1, Q8IX12
# Method: as §1
# CLPP, Q16740 = target: CLPP, Q16740
# Method: as §1
# CLPX, O76031 = target: CLPX, O76031
# Method: as §1
# LAMTOR5, O43504 = target: LAMTOR5, O43504
# Method: as §1
# NAMPT, P43490 = target: NAMPT, P43490
# Method: as §1
# NTPCR, Q9BSD7 = target: NTPCR, Q9BSD7
# Method: as §1
# NUBP2, Q9Y5Y2 = target: NUBP2, Q9Y5Y2
# Method: as §1
# NUP153, P49790 = target: NUP153, P49790
# Method: as §1
# NUP54, Q7Z3B4 = target: NUP54, Q7Z3B4
# Method: as §1
# ORC4, O43929 = target: ORC4, O43929
# Method: as §1
# PCBP2, Q15366 = target: PCBP2, Q15366
# Method: as §1
# PTPMT1, Q8WUK0 = target: PTPMT1, Q8WUK0
# Method: as §1
# TFB1M, Q8WVM0 = target: TFB1M, Q8WVM0
# Method: as §1
# UBAP2L, Q14157 = target: UBAP2L, Q14157
# Method: as §1
# UFD1, Q92890 = target: UFD1, Q92890
# Method: as §1
# UMPS, P11172 = target: UMPS, P11172
# Method: as §1
# UTP15, Q8TED0 = target: UTP15, Q8TED0
# Method: as §1
binder,measurement,setting,value
B1,PRISMA enrichment of interactor (log2),"AKAP8, O43823",8.73
same,PRISMA enrichment of interactor (log2),"ALDH2, P05091",5.37
same,PRISMA enrichment of interactor (log2),"ALKBH2, Q6NS38",5.12
same,PRISMA enrichment of interactor (log2),"APRT, P07741",5.52
same,PRISMA enrichment of interactor (log2),"CAND2, O75155",4.84
same,PRISMA enrichment of interactor (log2),"CHCHD2, Q9Y6H1",5.43
same,PRISMA enrichment of interactor (log2),"COPS3, Q9UNS2",4.36
same,PRISMA enrichment of interactor (log2),"CRACR2B, Q8N4Y2",4.26
same,PRISMA enrichment of interactor (log2),"DUSP3, P51452",5.01
same,PRISMA enrichment of interactor (log2),"EIF3K, Q9UBQ5",8.67
same,PRISMA enrichment of interactor (log2),"EXOC4, Q96A65",3.82
same,PRISMA enrichment of interactor (log2),"FAM50A, Q14320",4.13
same,PRISMA enrichment of interactor (log2),"HAX1, O00165",3.66
same,PRISMA enrichment of interactor (log2),"KIF23, Q02241",4.24
same,PRISMA enrichment of interactor (log2),"MRPL44, Q9H9J2",5.8
same,PRISMA enrichment of interactor (log2),"NCBP1, Q09161",5.48
same,PRISMA enrichment of interactor (log2),"NELFB, Q8WX92",4.84
same,PRISMA enrichment of interactor (log2),"PKN1, Q16512",5.6
same,PRISMA enrichment of interactor (log2),"PSME3, P61289",4.64
same,PRISMA enrichment of interactor (log2),"SMARCB1, Q12824",7.09
same,PRISMA enrichment of interactor (log2),"STRN, O43815",6.45
same,PRISMA enrichment of interactor (log2),"SUPT6H, Q7KZ85",6.51
same,PRISMA enrichment of interactor (log2),"TEX264, Q9Y6I9",5.26
same,PRISMA enrichment of interactor (log2),"YIF1A, O95070",6.02
same,PRISMA enrichment of interactor (log2),"ZC3H11A, O75152",5.86
B2,PRISMA enrichment of interactor (log2),"AK4, P27144",5.77
same,PRISMA enrichment of interactor (log2),"CCAR1, Q8IX12",4.77
same,PRISMA enrichment of interactor (log2),"CLPP, Q16740",5.23
same,PRISMA enrichment of interactor (log2),"CLPX, O76031",5.61
same,PRISMA enrichment of interactor (log2),"DUSP3, P51452",4.61
same,PRISMA enrichment of interactor (log2),"LAMTOR5, O43504",4.68
same,PRISMA enrichment of interactor (log2),"NAMPT, P43490",6.32
same,PRISMA enrichment of interactor (log2),"NTPCR, Q9BSD7",7.07
same,PRISMA enrichment of interactor (log2),"NUBP2, Q9Y5Y2",5.21
same,PRISMA enrichment of interactor (log2),"NUP153, P49790",6.01
same,PRISMA enrichment of interactor (log2),"NUP54, Q7Z3B4",4.52
same,PRISMA enrichment of interactor (log2),"ORC4, O43929",4.62
same,PRISMA enrichment of interactor (log2),"PCBP2, Q15366",5.91
same,PRISMA enrichment of interactor (log2),"PTPMT1, Q8WUK0",4.85
same,PRISMA enrichment of interactor (log2),"TFB1M, Q8WVM0",6.33
same,PRISMA enrichment of interactor (log2),"UBAP2L, Q14157",5.55
same,PRISMA enrichment of interactor (log2),"UFD1, Q92890",3.91
same,PRISMA enrichment of interactor (log2),"UMPS, P11172",5.91
same,PRISMA enrichment of interactor (log2),"UTP15, Q8TED0",8.23

# Quoted at random: 2 entries already listed.
binder,measurement,setting,value
B2,PRISMA enrichment of interactor (log2),"UFD1, Q92890",3.91
B1,PRISMA enrichment of interactor (log2),"SMARCB1, Q12824",7.09
